Laboratory results reported in PMC12040169 (PLOS Biology, 2025).
The other results are listed elsewhere or left out.

tested on: T1, CTL2-GFP (C. trachomatis L2/434/Bu, GFP-expressing); set-up: species or system HeLa; Intracellular C. trachomatis growth in HeLa cells, bulk GFP fluorescence relative to DMSO; conditions: bulk GFP, single well; 28.5 h, 10 µM; inhibitor
T1 construct: L2/434/Bu, GFP-expressing

| SMILES | % of control remaining [%] |
| --- | --- |
| O=C(CCN1CCOCC1)Nc1cc(Cl)cc(Cl)c1 [CBK057021] | 115.538 |
| COc1ccc(CCn2cncc2-c2cn(C)nc2C)cc1C [CBK281814] | 151.697 |
| COc1ccccc1C1(NC(=O)CCn2cccn2)CCCC1 [CBK283626] | 106.855 |
| CC(C)C(NC(=O)C1CCC(C(C)(C)C)CC1)C(=O)O (centres unmarked) [CBK286610] | 122.373 |
| Cc1ccc(OCCC(=O)NCC(c2cccs2)N2CCOCC2)cc1 (centres unmarked) [CBK305976] | 111.503 |
| CSc1nc(O)c(C(c2ccc(C)cc2)c2c(O)nc(SC)nc2O)c(O)n1 [CBK265313] | 130.168 |
| O=S(=O)(Nc1ccc(N2CCNCC2)c2ccccc12)c1cc(Cl)sc1Cl [CBK003116C] | 71.7731 |
| COc1cccc(CN2CCN(C(=O)c3cc(-c4ccncc4)nc4ccc(C)cc34)CC2)c1 [CBK267760] | 117.495 |
| COC(=O)c1scc(NS(=O)(=O)c2cccc(C(F)(F)F)c2)c1C(=O)OC [CBK026680] | 101.816 |
| Cc1[nH]c2ccc(F)cc2c1CC(=O)N(C)CCN1CCCCC1 [CBK282748] | 123.216 |
| COc1cc(CNc2cc(-c3ccccc3N(C)C)ncn2)cc(OC)c1OC [CBK037123] | 99.3861 |
| N#Cc1cccc(S(=O)(=O)N2CCCCC2CO)c1 (centres unmarked) [CBK051524] | 128.608 |
| COc1cccc(CN2CCCC3(C2)NCCc2c3[nH]c3cc(F)ccc23)c1 (centres unmarked) [CBK039786] | 88.7603 |
| COc1ccc(OC)c(-c2nc(Nc3ccccc3C)sc2CC(=O)O)c1 [CBK126811] | 91.2247 |
| CCOC(=O)N1CCC(NS(=O)(=O)c2cc(Br)ccc2OC)CC1 [CBK045463] | 127.689 |
| COc1ccc([C@@]23CC[C@@H](NC(=O)Nc4ccc(F)c(C#N)c4)C[C@@H]2N(C)CC3)cc1OC [CBK051659T] | 115.653 |
| CN(C)S(=O)(=O)c1ccc2c(c1)nc1n2CCC1 [CBK115558] | 139.165 |
| CCC(Sc1ccc2nnc(-c3cccnc3)n2n1)C(=O)O (centres unmarked) [CBK287623] | 122.889 |
| CC(=O)C(C(=O)Nc1ccc(F)cc1)C(c1cccc2ccccc12)C(C#N)C#N (centres unmarked) [CBK262081] | 113.757 |
| O=C(NCC1CCCO1)c1ccccc1Sc1ccc([N+](=O)[O-])cc1Cl (centres unmarked) [CBK266041] | 121.701 |
| COc1ccc(C[C@@]23CC[C@@H](NC(=S)NCc4ccccc4)C[C@@H]2N(C)CC3)cc1 [CBK004262] | 138.528 |
| CN(C)/C=N/c1nc(=O)[nH]c2c1ncn2C1CC(O)C(CO)O1 (centres unmarked) [CBK201285] | 135.016 |
| CCC1CCCCN1C(=O)c1sc(C)nc1C (centres unmarked) [CBK089359] | 60.8973 |
| COc1cc(-c2nccnc2N[C@@H]2CCN(Cc3ccccc3)C2)cc(OC)c1OC [CBK037651] | 172.088 |
| COc1ccccc1-c1cnc(Nc2ccc(N3CCOCC3)cc2)c2nccn12 [CBK091230] | 189.714 |

Copied from the list.
In % of control remaining [%], `COC(=O)c1scc(NS(=O)(=O)c2cccc(C(F)(F)F)c2)c1C(=O)OC` [CBK026680] reads 101.816
In % of control remaining [%], `CCC(Sc1ccc2nnc(-c3cccnc3)n2n1)C(=O)O` (centres unmarked) [CBK287623] reads 122.889
In % of control remaining [%], `N#Cc1cccc(S(=O)(=O)N2CCCCC2CO)c1` (centres unmarked) [CBK051524] reads 128.608

(continued)

| SMILES | % of control remaining [%] |
| --- | --- |
| Cc1cc(-c2cn3cc(C(=O)N4CCNCC4)nc3c(=O)n2C)c(C)o1 [CBK307325] | 95.0449 |
| CC(CCN(CCN)C(=O)N1CCC(Cn2cncn2)(C2CCCCC2)CC1)c1ccccc1 (centres unmarked) [CBK002130C] | 112.659 |
| O=C(COc1ccccc1)Nc1ccccc1N1CCNCC1 [CBK028279T] | 115.893 |
| CC(C)(C)OC(=O)N1CCC(C2OCc3cc(C(=O)N4CCNC(=O)C4)ccc3O2)CC1 (centres unmarked) [CBK173277] | 134.687 |
| CN1CCN(C(=O)CNC(=O)CNS(=O)(=O)c2ccccc2)CC1 [CBK268651] | 145.854 |
| Nc1cc2cccnc2c(-c2ccc(OC(F)(F)F)cc2)n1 [CBK061926] | 118.962 |
| Fc1ccc(Oc2nccnc2N2CCN(CCOc3cccnc3)CC2)cc1 [CBK083037T] | 117.23 |
| Cc1cc(C)nc(NC(=O)OCCc2ccncc2)c1 [CBK138233] | 111.032 |
| CCOc1ccc(C(C)(CC(=O)O)C(=O)O)cc1 (centres unmarked) [CBK261361] | 90.1547 |
| Cc1nc(S)[nH]c(=O)c1Cc1ccc(F)cc1 [CBK288456] | 117.621 |
| Cc1ccc(O)c(Nc2ncnc3ccccc23)c1 [CBK266020C] | 188.939 |
| CNS(=O)(=O)c1ccc(CCC(=O)N(C)Cc2cnn(C)c2)cc1 [CBK305712] | 87.455 |
| COc1cccc2cc(C(=O)Nc3cccc(C)n3)oc12 [CBK287659] | 103.46 |
| COc1cc(C(C)=O)ccc1OCCCN1CCC(O)(C(=O)c2ccc(Cl)c(Cl)c2)CC1 [CBK024875C] | 86.1712 |
| COc1ccc(C(=O)N(CCC#N)Cc2ccco2)cc1 [CBK304862] | 97.1233 |
| O=C1CC(N2CCC(c3nc4ccccc4s3)CC2)C(=O)N1Cc1ccccc1 (centres unmarked) [CBK267438] | 141.182 |
| O=C(NCc1ccccc1OC1CCNC1)c1ccccc1 (centres unmarked) [CBK028301T] | 135.089 |
| Cc1cccc(-c2ncc(NC(=O)Cc3cccc(Oc4ccccc4)c3)nc2-c2ccc(N)cc2)c1 [CBK037583] | 110.937 |
| CNC(=O)c1ccc(NS(=O)(=O)c2ccc(OC(F)(F)F)cc2)cc1 [CBK043495] | 123.079 |
| CSCCC(C(=O)O)N1C(=O)c2ccc(C(=O)O)cc2C1=O (centres unmarked) [CBK265135] | 131.946 |
| COc1cc2c(cc1OC)C1c3ccccc3NC(=O)N1CC2 (centres unmarked) [CBK284471] | 150.193 |
| N#Cc1c2ccccc2cn1Cc1cccc(Cl)c1 [CBK019531] | 130.166 |
| CC1(C)CC(=O)c2cc(C(N)=O)c(=O)n(-c3ccc(Cl)cc3)c2C1 [CBK293936] | 141.326 |
| Cc1ccc(Nc2nc3c(c(=O)[nH]2)CCCC3)cc1 [CBK287895] | 84.6224 |
| O=C(O)CCC(=O)Nc1ccc(Oc2ccccc2)cc1 [CBK286957] | 145.231 |
